Experimental data taken from PMC7073468, “Small RNA‐binding protein RapZ mediates cell envelope precursor sensing and signaling in Escherichia coli” (The EMBO Journal, 2020).
Construct, isoform or probe ends are uncertain for at least one entry. Weaker means in comparison with the reference protein, sequence or condition of that experiment. Tags and fusion partners may be left off the protein sequences shown. At least one verdict was read from the data and is not stated in words by the source.

Target: T1, Strep-RapZ-CTD (Escherichia coli) (UniProt P0A894)
T1 sequence (looked up): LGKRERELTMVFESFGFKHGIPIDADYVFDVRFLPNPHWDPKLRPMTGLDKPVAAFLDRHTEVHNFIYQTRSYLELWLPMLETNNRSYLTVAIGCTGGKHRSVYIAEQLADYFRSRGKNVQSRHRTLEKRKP
Assay: EMSA
Conditions: EMSA: 10 mM Tris-HCl, 100 mM KCl, 10 mM MgCl2, pH 6.0 (Fig 6D-F; also pH 7.0 and >=8.0), 1 ug yeast tRNA, 30 C 30 min, native 5.5% PAA gel at 4 C, recombinant protein, residues 153-284, protein details: Strep, label: radiolabeled, probe letters rebuilt from the primers and the genome

Sequence: GGGAGAAGUGGCUCAUUCACCGACUUAUGUCAGCCCCUUCGGGACGUGCUACAUAAAAUACGAAUGACGCACAACAAGGUGCCUGCCGUCCAACUUCUGAUAUCAGCGUAGCUAUAUCAACCAUCGGGCGAAACGUCGAGUUAGGCACCGCCUU [GlmY* (processed sRNA)]
- binding result (GlcN6P, pH 6.0 (responds as well as full-length, GlmY* released)): binds more weakly
- binding result (no metabolite, pH 6.0): binds
